Variants at the floor of the assay are shown more often than the library holds them.
B1: tRNA (parent)
chain: GUUCCGUUGGCGUAAUGGUAACGCGUCUCCCUCCUAAGGAGAAGACUGCGGGUUCGAGUCCCGUACGGAACG

Variants of: B1
Assay: yeast fitness relative to wild type (ratio to wild type); higher = fitter; tRNA-Arg(CCU), competitive growth, 37 C, YPD
In short: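 A pool of Saccharomyces cerevisiae strains, each with a tRNA-Arg(CCU) gene variant at the native genomic locus, was competed in YPD at 37°C for 24 hours across six parallel replicates. The variants had been chemically synthesised at a 3% per-site mutation rate over 69 sites, and gene amplicons before and after competition were read by 100-nucleotide paired-end sequencing. Darwinian fitness relative to wild type rested on changes in genotype frequencies. Genotypes required ≥ 100 starting reads, and estimates < 0.5 were set to 0.5.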

Point of comparison: U47A G48A A70U, yeast fitness 0.748. Against it:
- A21U G25A G56A A65G C66A G68C — lower, ≤ 0.5
- U3A A20C U32A C62U G63A A69C — lower, ≤ 0.5
- U16G U19G C29G G50C C66U — lower, ≤ 0.5
- C33G A40U A65C — lower, ≤ 0.5
- C11G C22A A36C C61G A69C — lower, ≤ 0.5
- A15U C31G U54G — lower, ≤ 0.5
- C5A C11G C33A G38A U53A C55U — lower, ≤ 0.5
- G18C C22U C55U C66U — lower, ≤ 0.5
- C5U G17A — higher, 0.929
- G12C C61A C62G G63A — lower, ≤ 0.5
- U3G A37C A42U — lower, ≤ 0.5
- G17C A21G U26G — lower, ≤ 0.5
- A21U A43G U47A C49A — lower, ≤ 0.5
- C5A U54C C61U C62U A69U — lower, 0.546
- G6A A37U C49A C62U — lower, ≤ 0.5
- U7G U28C G41C G58C — lower, ≤ 0.5
- G6A U8A G9A A14C A21U A40G — lower, ≤ 0.5
- U7A A36G G41C U54A — lower, ≤ 0.5
- U7C A14U C24G A43G — lower, ≤ 0.5
- U2C C4U G10C A57C U59C A70C — lower, ≤ 0.5
- A15G G51A C62U — lower, ≤ 0.5
- A42G A43G U64A G68C — lower, ≤ 0.5
- U19A A42U A45G U64A — lower, ≤ 0.5
- A43G G51A G52A A69C — lower, ≤ 0.5
- U3C U8C G12A C29G C34U A36C C61A — lower, ≤ 0.5
- A15C G17C — lower, 0.62
- C4G C5G C11A — lower, ≤ 0.5
- G23C U32A C60G — lower, ≤ 0.5
- A14C A43G A65U — lower, ≤ 0.5
- U26G G39C A45G C55A A69U — lower, ≤ 0.5
- G10A G18C C24U C30G — lower, ≤ 0.5
- A14G U28C G67U A69C — lower, ≤ 0.5
- C22A C49U G51C — lower, ≤ 0.5
- A15U G17A A70C — lower, ≤ 0.5
- U2G U8A G23A U32C A45G C60U C66G — lower, ≤ 0.5
- U19A C31A A37G — lower, ≤ 0.5
- U2C C27U — higher, 0.881
- U47C G48C A65C — lower, 0.619
- A14C C62G — lower, 0.599
- C61U A65U — lower, 0.724
- A37G C49G C55U G56C G68A — lower, ≤ 0.5
- U35G A57G C61G C62U — lower, ≤ 0.5
- C11G U35C C46U C61U A69C — lower, ≤ 0.5
- C5G C30A C34G — lower, ≤ 0.5
- U3A A36U C60A — lower, ≤ 0.5
- G6A G23A U28G C61A A69U — lower, ≤ 0.5
- U7C G10C C24U C46U — lower, ≤ 0.5
- C24G U26A C33U — lower, ≤ 0.5
- C5G U16A C24G C49G — lower, ≤ 0.5
- U3A U16G A37U C49A — lower, ≤ 0.5
- C11A C22G C34A G41A — lower, ≤ 0.5
- C34A U47C G51A G67A — lower, ≤ 0.5
- G9A G63U U64G — lower, ≤ 0.5
- C11U C22G C34A — lower, ≤ 0.5
- U19A U32C C49A C66A — lower, ≤ 0.5
- A15U C27U C66A — lower, ≤ 0.5
- U8C C22U C31U C60A — lower, ≤ 0.5
- C4A C24G C29G A43C U53A — lower, ≤ 0.5
- G25A C29U G51C A70U — lower, ≤ 0.5
- C27A G39A C61G — lower, ≤ 0.5
- C5U A14C G38C A42C U64A G67A — lower, ≤ 0.5
- C29U C33G C60G — lower, ≤ 0.5
- C5G A21C C30G C34U G38C C49U A70C — lower, ≤ 0.5
- A42C G63C G67A — lower, ≤ 0.5
- C24G C49U G51A C61A — lower, ≤ 0.5
- G10C A42C A43G — lower, ≤ 0.5
- G18A C66A G68C — lower, ≤ 0.5
- C22U G25A C61G — lower, ≤ 0.5
- C5U A21C C30G U35A G38C — lower, ≤ 0.5
- C22G A45U G48C — lower, 0.511
- G6C C22A C31G G68C — lower, ≤ 0.5
- U16A C24A C30G C34U C55A G67A — lower, ≤ 0.5
- U8C A40C C61A — lower, ≤ 0.5
- G18A A21U U26C G48A C61A — lower, ≤ 0.5
- C22U C24U G38C — lower, ≤ 0.5
- G9A A14C C22G U54C A57G — lower, ≤ 0.5
- C5U G23A C30U C33A G41C A42U — lower, ≤ 0.5
- C5U G18C G52C — lower, ≤ 0.5
- C29A A37G A42G — lower, ≤ 0.5
- A15C C33U C49U — lower, ≤ 0.5
- G9C C24U C30G G52A C61U — lower, ≤ 0.5
- U28A U35A — lower, 0.584
